Test results taken from paper PMC10878142.
These are yes or no findings as the source states them, for the method shown. Binding seen in cells or lysates may run through a third protein. Some binding calls cover weakened binding; strength is not graded here.

By UniProt entry, the sequences of proteins in these tests, tags left out. Where a name states a change or a piece, a line headed by the entry shows the natural chain unless it says otherwise. Chains listed by the source or under a name are the forms on record and can include a tag or linker.
UniProt P40763: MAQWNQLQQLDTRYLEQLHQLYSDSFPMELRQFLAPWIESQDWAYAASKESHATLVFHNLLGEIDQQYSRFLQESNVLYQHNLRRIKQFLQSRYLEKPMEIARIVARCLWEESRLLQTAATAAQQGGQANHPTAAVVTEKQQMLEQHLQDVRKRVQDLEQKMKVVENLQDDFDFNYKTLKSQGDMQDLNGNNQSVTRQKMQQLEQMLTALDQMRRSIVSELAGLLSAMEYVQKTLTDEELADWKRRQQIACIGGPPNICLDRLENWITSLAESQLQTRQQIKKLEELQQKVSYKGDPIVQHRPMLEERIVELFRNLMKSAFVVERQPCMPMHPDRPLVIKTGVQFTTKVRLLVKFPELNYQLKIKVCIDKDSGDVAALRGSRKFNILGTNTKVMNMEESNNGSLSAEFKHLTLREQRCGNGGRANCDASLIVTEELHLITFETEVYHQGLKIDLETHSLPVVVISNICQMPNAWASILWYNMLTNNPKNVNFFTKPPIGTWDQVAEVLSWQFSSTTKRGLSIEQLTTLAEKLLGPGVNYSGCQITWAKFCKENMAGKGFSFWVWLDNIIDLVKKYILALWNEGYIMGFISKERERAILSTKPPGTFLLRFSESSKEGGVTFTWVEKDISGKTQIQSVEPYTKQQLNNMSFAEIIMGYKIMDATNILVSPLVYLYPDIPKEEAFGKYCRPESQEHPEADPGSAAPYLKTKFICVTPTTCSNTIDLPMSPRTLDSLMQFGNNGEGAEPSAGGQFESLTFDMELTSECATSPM
standard CD44 (CD44s) (P16070-12, form named): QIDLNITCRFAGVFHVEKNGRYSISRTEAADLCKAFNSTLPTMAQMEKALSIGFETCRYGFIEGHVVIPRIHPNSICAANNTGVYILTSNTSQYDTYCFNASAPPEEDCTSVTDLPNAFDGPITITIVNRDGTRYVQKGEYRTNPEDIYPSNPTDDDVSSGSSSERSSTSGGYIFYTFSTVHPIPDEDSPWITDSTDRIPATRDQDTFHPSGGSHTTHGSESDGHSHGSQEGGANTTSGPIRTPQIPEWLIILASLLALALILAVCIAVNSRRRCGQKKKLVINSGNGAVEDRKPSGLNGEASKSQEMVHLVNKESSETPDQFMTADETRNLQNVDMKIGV

Target: STAT3 (human (endogenous in NCI-N87 / SGC-7901)) (UniProt P40763)
Assay: co-IP; Pierce Co-IP kit, antibody covalently coupled to amine-reactive resin; endogenous CD44s or STAT3 immunoprecipitated with anti-STAT3 or anti-CD44s antibody, Western blot with both antibodies; high TGF-β1 environment

standard CD44 (CD44s) (from UniProt P16070-12 21-361)
binding: binds
